Measurements reported in PubChem BioAssay AID1259329 (Drosophila RNAi Screening Center, 2017).

- Aim: 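Total ATP after each knock-down with water instead of metal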
- Cells: Drosophila S2R+ cells
- Reagent: long dsRNA against Drosophila genes
- Duration: 5 days (4 days knock-down, then 1 day after water)
- Treatment: water added as vehicle control, no metal, one day before read-out
- Detection: 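Luciferase-based total ATP per well, read one day after adding water without metal following 4 days knock-down, given as z-score averaged across duplicate plates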
- Direction: mean ATP z-score: higher = more total ATP, likely more viable cells
- Rule for the call: 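Active means the absolute value of the z-score is over 1.5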
Here is an unselected part of 418 reagents. 20 of them (4.8%) count as active. 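All active calls have high ATP; no reagent fell below -1.5.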 The record does not give: the amount of reagent, the dose of the treatment.

Gene	DRSC id	mean ATP z-score	call
hay	DRSC11354	2.36	active
hay	DRSC35779	4.02	active
hay	DRSC37557	0.576	inactive
CtsF	DRSC12056	-1.12	inactive
CtsF	DRSC12195	1.04	inactive
CtsF	DRSC12196	0.091	inactive
VhaPPA1-2	DRSC16176	-0.0341	inactive
VhaPPA1-2	DRSC25591	-1.3	inactive
CG7049	DRSC08587	-1.08	inactive
CG7049	DRSC26356	1.37	inactive
CG31661	DRSC00296	0.886	inactive
CG31661	DRSC28732	-0.296	inactive
mv	DRSC08208	-0.482	inactive
mv	DRSC28733	0.0463	inactive
mv	DRSC33279	-0.534	inactive

6 of these entries, reformatted.
{"Gene":"CG7049","DRSC id":"DRSC08587","mean ATP z-score":-1.08,"call":"inactive"}
{"Gene":"CG7049","DRSC id":"DRSC26356","mean ATP z-score":1.37,"call":"inactive"}
{"Gene":"CG31661","DRSC id":"DRSC00296","mean ATP z-score":0.886,"call":"inactive"}
{"Gene":"CG31661","DRSC id":"DRSC28732","mean ATP z-score":-0.296,"call":"inactive"}
{"Gene":"mv","DRSC id":"DRSC08208","mean ATP z-score":-0.482,"call":"inactive"}
{"Gene":"mv","DRSC id":"DRSC28733","mean ATP z-score":0.0463,"call":"inactive"}

The listing continues:
Gene	DRSC id	mean ATP z-score	call
rb	DRSC18826	0.852	inactive
rb	DRSC27940	-0.0167	inactive
Had2	DRSC05971	-0.427	inactive
Had2	DRSC26955	-0.0261	inactive
CG7300	DRSC03044	-0.646	inactive
CG7300	DRSC28239	0.297	inactive
Xpac	DRSC18730	0.407	inactive
Xpac	DRSC25963	0.576	inactive
Xpac	DRSC41029	-0.659	inactive
Hexo2	DRSC18671	-0.146	inactive
Vps25	DRSC06486	0.726	inactive
Vps25	DRSC31962	-0.96	inactive
Vps25	DRSC31963	-0.914	inactive
Rpt6R	DRSC15431	-0.272	inactive
Rpt6R	DRSC41241	-0.38	inactive
CRAT	DRSC12523	0.602	inactive
CRAT	DRSC29377	0.757	inactive
LManII	DRSC01986	-0.483	inactive
ZnT63C	DRSC08519	0.252	inactive
ZnT63C	DRSC23528	-0.714	inactive
ZnT63C	DRSC37698	0.215	inactive
CG31926	DRSC00295	0.0798	inactive
CG31926	DRSC29022	0.155	inactive
CG4586	DRSC18373	-0.0655	inactive
CG4586	DRSC34798	-1.34	inactive
Ppt1	DRSC17806	0.464	inactive
Vha16-1	DRSC05020	0.487	inactive
Vha16-1	DRSC32228	-0.549	inactive
Vha16-1	DRSC32229	-0.63	inactive
CG7402	DRSC10839	-0.215	inactive
